Test system: T1, OSBP
T1 construct: His-tagged
Assay: [3H]cholesterol competition, Talon resin
Assay type: binding
Details: pH 7.4, 20 °C, 300 mM KCl, Triton X-100, against 100 nM [3H]cholesterol

| SMILES | % inhibition at 2 μM (not extracted from liposomes by OSBP) | % inhibition at 250-750 nM |
| --- | --- | --- |
| CC(C)CCC[C@@H](C)[C@H]1CC[C@H]2C3=CC=C4C[C@@H](O)CC[C@]4(C)C3=CC[C@]12C [CTL, cholestatrienol] | 50% | – |
| CC(C)[C@@H](C)/C=C/[C@@H](C)[C@H]1CC[C@H]2C3=CC=C4C[C@@H](O)CC[C@]4(C)C3=CC[C@]12C [DHE, dehydroergosterol] | – | 10–15% |
